Values from PubChem BioAssay AID652243 (Drosophila RNAi Screening Center, 2013).

Test: 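Knock-downs that decrease or increase androgen receptor reporter signal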 (primary screen)
System: Drosophila S2R+ cells
Knock-down reagent: long dsRNA against Drosophila genes
Duration: 72 h (48 h, then 24 h hormone)
Treatment: synthetic androgen R1881 at 10 nM for 24 h
Detection: 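Per-well raw luminescence of the androgen-driven firefly reporter and of the Renilla control, two replicates each, without normalisation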
Scale: firefly reporter light: higher = more light from androgen-responsive reporter; Renilla control light: higher = more constitutive control signal (cell number, transfection)
Active means: 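Hit when the log firefly-to-Renilla ratio dropped or increased by a fixed fold versus the mean of GFP or LacZ controls across duplicate plates; lowering cut given as 1.5 and as 3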
Meaning of the calls: active = hit: reporter lowered or raised; inactive = no hit
The screen tested about 24,000 reagents; below is a random part of those that have a named target and a result. In the full data, 246 (1%) were called active. 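Plates not normalised; calls are printed but the firefly/Renilla ratio behind them is not deposited; fold cut for lowering reported inconsistently.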 The raw values are shown without normalisation. Names joined by + are all predicted targets of the reagent. Not stated in the record: the amount of reagent.

no.	predicted target	DRSC id	firefly reporter light, replicate 1	firefly reporter light, replicate 2	Renilla control light, replicate 1	Renilla control light, replicate 2	call
1	CG6683 (GeneID 38970)	DRSC10694	8.18e5	7.90e5	1.36e6	1.24e6	inactive
2	CG6683 (GeneID 38970)	DRSC25674	1.01e6	7.63e5	1.17e6	1.25e6	inactive
3	CG33120 (GeneID 326260)	DRSC02073	1.14e6	7.61e5	2.47e6	1.93e6	inactive
4	CR44003 + CG44002	DRSC00523	8.11e5	9.55e5	1.94e6	1.73e6	inactive
5	CR44003 + CG44002	DRSC00606	1.13e5	1.73e5	8.93e5	9.48e5	inactive
6	CG7789 (GeneID 43516)	DRSC16312	91181	1.01e5	8.65e5	6.72e5	inactive
7	CG7789 (GeneID 43516)	DRSC39278					inactive
8	CG31909 (GeneID 319020)	DRSC22180	6.70e5	4.96e5	1.89e6	1.76e6	inactive
9	CG31909 (GeneID 319020)	DRSC26278	3.76e5	5.81e5	3.22e5	7.39e5	inactive
10	blot (GeneID 39939)	DRSC09485	93022	67955	2.60e5	3.36e5	inactive
11	blot (GeneID 39939)	DRSC11328	31364	60176	3.87e5	5.96e5	inactive
12	blot (GeneID 39939)	DRSC26157	2.93e5	3.36e5	5.67e5	6.70e5	inactive
13	CG18518 (GeneID 34932)	DRSC01509	2.35e5	3.03e5	5.72e5	6.10e5	inactive
14	CG31279 (GeneID 318657)	DRSC13158	1.18e5	1.29e5	1.68e5	2.81e5	inactive
15	CG9215 (GeneID 32494)	DRSC20171	3.11e5	4.30e5	2.48e6	3.53e6	inactive
16	Hex-t1 (GeneID 117364)	DRSC16701	1.22e5	1.52e5	2.45e6	2.34e6	inactive
17	Hex-t1 (GeneID 117364)	DRSC26127	2.85e5	2.74e5	7.55e5	7.86e5	inactive
18	t (GeneID 31863)	DRSC17815	4.23e5	4.21e5	3.15e6	3.07e6	inactive
19	t (GeneID 31863)	DRSC29460	7.53e5	6.08e5	7.80e5	7.80e5	inactive
20	CG9427 (GeneID 41164)	DRSC16490	77590	1.19e5	8.91e5	1.06e6	inactive
21	CG9427 (GeneID 41164)	DRSC28856	5.04e5	3.79e5	1.56e6	1.06e6	inactive
22	mRpL50 (GeneID 38796)	DRSC11015	6.39e5	7.48e5	1.78e6	1.63e6	inactive
23	mRpL50 (GeneID 38796)	DRSC29216	5.44e5	5.94e5	1.20e6	1.13e6	inactive
24	Grl43a (GeneID 35705)	DRSC06383	2.41e5	1.75e5	1.40e6	9.02e5	inactive

A stretch of the results above, as a working copy:
no.	predicted target	DRSC id	firefly reporter light, replicate 1	firefly reporter light, replicate 2	Renilla control light, replicate 1	Renilla control light, replicate 2	call
10	blot (GeneID 39939)	DRSC09485	93022	67955	2.60e5	3.36e5	inactive
11	blot (GeneID 39939)	DRSC11328	31364	60176	3.87e5	5.96e5	inactive
12	blot (GeneID 39939)	DRSC26157	2.93e5	3.36e5	5.67e5	6.70e5	inactive
